Patent US20140193439A1
No constants are given. Whether binding was seen depends on the method and setting. Binding seen in cells or lysates may run through a third protein. Some binding calls cover weakened binding; strength is not graded here.

Chains of the proteins cited; added tags and fusions are not shown.
UniProt Q13261: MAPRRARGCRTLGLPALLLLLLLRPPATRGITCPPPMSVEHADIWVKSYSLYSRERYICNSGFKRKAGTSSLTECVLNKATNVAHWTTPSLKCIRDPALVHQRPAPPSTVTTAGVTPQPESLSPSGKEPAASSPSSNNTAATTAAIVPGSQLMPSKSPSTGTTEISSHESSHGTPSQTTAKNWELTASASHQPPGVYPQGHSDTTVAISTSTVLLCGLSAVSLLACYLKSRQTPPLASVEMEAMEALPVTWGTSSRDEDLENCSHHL

Columns and labels:
murine IL-15 (mouse) = target: T1, murine IL-15 (mouse) (UniProt P48346); test: co-immunoprecipitation with anti-mouse IL-15 antibody (FIG. 7A)
T1 sequence (looked up): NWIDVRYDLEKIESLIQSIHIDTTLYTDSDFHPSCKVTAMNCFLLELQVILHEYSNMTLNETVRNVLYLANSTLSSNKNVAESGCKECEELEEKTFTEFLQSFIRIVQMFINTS

[1] = target: in vitro translated [35S]-methionine labeled human IL-15Rα protein (from pVAX1-IL-15Rα) (human) (UniProt Q13261); test: as above

Molecule: in vitro translated [35S]-methionine labeled human IL-15Rα protein (from pVAX1-IL-15Rα) (from UniProt Q13261 1-267) (receptor)
- binding (murine IL-15 (mouse)): binds

B1: murine IL-15 (ligand, mouse, UniProt P48346 49-162, looked up)
chain: T1 sequence (looked up)
- binding [1]: binds
